Source: article PMC3291610, “Identification of the Neogenin-Binding Site on the Repulsive Guidance Molecule A” (PLoS ONE, 2012)
These are yes or no findings as the source states them, for the method shown. In cells and extracts the contact can be indirect. A result given as binding can be weak or reduced; the word gives no strength. Sequences can lack the tags named with a protein.

By UniProt entry, the sequences of proteins in these tests, tags left out. Where a name states a change or a piece, a line headed by the entry shows the natural chain unless it says otherwise.
UniProt Q96B86: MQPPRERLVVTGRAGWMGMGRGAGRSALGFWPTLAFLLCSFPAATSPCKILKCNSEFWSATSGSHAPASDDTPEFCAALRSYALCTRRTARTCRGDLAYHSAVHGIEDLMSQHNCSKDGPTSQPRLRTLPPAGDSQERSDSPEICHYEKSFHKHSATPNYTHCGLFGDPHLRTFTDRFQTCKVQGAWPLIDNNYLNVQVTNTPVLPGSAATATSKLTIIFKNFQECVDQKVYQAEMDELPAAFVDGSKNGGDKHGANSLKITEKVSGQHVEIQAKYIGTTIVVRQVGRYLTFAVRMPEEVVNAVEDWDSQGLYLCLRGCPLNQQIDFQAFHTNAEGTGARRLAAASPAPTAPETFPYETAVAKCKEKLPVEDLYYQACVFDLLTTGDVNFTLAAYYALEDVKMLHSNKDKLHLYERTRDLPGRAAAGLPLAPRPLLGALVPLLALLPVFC

target: T1, VSV-G-tagged full-length neogenin (human) (UniProt Q92859); assay: co-IP; HEK293T cells co-transfected with VSV-G-neogenin and Myc-RGMa constructs, 36-48 h; lysis in 1% Triton X-100, 150 mM NaCl, 20 mM Tris/HCl pH 7.5; IP with anti-VSV-G and protein A-sepharose at 4°C; blot with anti-Myc
T1 sequence: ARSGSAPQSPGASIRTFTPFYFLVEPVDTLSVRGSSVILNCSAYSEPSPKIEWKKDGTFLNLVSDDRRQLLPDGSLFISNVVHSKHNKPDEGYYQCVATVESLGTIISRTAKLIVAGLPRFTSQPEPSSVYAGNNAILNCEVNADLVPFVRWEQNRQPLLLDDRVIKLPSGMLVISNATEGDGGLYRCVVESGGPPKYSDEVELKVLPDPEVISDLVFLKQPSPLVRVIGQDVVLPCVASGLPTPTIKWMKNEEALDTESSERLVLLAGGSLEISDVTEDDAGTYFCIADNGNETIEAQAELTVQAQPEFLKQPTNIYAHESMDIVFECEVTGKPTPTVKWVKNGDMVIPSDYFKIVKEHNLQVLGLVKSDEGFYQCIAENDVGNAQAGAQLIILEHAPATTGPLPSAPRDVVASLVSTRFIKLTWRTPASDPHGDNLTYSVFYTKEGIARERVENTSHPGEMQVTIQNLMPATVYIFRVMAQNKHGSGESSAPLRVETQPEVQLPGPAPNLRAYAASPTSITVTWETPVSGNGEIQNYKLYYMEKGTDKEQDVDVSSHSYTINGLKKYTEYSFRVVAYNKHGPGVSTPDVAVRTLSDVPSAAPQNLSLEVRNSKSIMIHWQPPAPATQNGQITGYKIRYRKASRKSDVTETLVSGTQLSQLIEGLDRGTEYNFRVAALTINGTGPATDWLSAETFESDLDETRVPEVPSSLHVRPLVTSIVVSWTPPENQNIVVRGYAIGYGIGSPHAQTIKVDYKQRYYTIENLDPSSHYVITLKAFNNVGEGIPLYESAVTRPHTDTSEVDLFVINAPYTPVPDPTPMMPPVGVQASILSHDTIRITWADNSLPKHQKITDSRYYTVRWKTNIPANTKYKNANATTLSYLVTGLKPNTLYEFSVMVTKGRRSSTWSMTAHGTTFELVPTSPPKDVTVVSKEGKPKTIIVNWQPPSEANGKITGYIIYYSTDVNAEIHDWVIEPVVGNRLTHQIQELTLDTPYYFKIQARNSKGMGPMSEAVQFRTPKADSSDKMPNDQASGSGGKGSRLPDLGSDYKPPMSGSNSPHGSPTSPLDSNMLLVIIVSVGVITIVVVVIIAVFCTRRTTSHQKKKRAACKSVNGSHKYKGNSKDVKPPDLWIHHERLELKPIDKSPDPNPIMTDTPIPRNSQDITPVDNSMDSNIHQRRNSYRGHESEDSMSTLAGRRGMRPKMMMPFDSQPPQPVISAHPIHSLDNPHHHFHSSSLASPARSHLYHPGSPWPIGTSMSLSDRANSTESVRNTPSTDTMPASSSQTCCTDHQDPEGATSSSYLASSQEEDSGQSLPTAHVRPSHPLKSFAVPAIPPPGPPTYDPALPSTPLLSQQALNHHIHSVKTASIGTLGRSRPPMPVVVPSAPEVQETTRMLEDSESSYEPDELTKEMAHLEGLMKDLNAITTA

Substance | binding
C-RGMa1 (C-RGMa with aa 169-258 deleted), Myc-tagged (from UniProt Q96B86) (domain or fragment) | binds
C-terminal region of RGMa without a GPI anchor domain, Myc-tagged (human) (domain or fragment) | binds
C-RGMa2 (C-RGMa with aa 169-332 deleted), Myc-tagged (from UniProt Q96B86) (domain or fragment) | no binding
N-terminal region of RGMa, Myc-tagged (human) (domain or fragment) | no binding
